Earlier results as cited in patent publication US6143325A, “Nefazodone dosage form” (priority 1999, dated 2000).

Settings: hydrophilic matrix extended-release formulation, relative to fasted state; cited from earlier work

COC(=O)C1=C(C)NC(C)=C(C(=O)OC)C1c1ccccc1[N+](=O)[O-] [nifedipine]
increase of area under the curve (AUC) in the fed state: 75%
